Values from PubChem BioAssay AID504786 (Drosophila RNAi Screening Center, 2011)
In all, the deposit lists about 21,000 reagents; this is a random part of those that have a named target and a result. 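Primary screen; positive scores mean lost reporter signal, so the sign may be inverted from the usual convention.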 Names joined by + are all predicted targets of the reagent. No sequences are given here.

Purpose: 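Knock-downs reducing HIF reporter induction by the iron chelator DFO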 (primary screen)
System: Drosophila S2 cells with a stable HIF luciferase reporter
Reagent: long dsRNA against Drosophila genes, about 0.2 µg dsRNA per well of a 384-well plate
Duration: three days of knock-down, then 20 h of DFO before reading
Treatment: desferrioxamine (DFO) at 100 µM, an iron chelator that mimics hypoxia, for 20 h
Read-out: 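HIF reporter luminescence in cells given 100 µM DFO for 20 h, using the mouse ldh-a hypoxia-response element, scored as per-plate z-scores; higher means greater loss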
Reading the numbers: z-score: higher = stronger loss of HIF reporter signal

no.	gene	amplicon	z-score, replicate 1	z-score, replicate 2
1	CG42394 + CG6567	DRSC12821	-0.2	0.3
2	CG34375	DRSC14684	-0.2	-0.3
3	CG34375	DRSC14685	-0.4	-0.4
4	alphaTub67C	DRSC11321	0.6	0.8
5	CG13280	DRSC02253	-0.3	0.5
6	v	DRSC20383	-0.3	-0.6
7	CG18581	DRSC10324	0.1	-0.7
8	Lgr4	DRSC18969	0	0.2
9	Lgr4	DRSC18970	-0.3	-0.1
10	Lgr4	DRSC19884	-0.2	-0.8
11	Ca-alpha1D	DRSC03284	-0.3	-0.5
12	CG34106	DRSC01578	0.4	-0.5
13	RpS17	DRSC11271	6	5.6
14	CCDC151	DRSC10131	-0.3	-0.3
15	Hpf1	DRSC12202	-0.4	-0.7
16	scrt	DRSC08736	1.7	1.8
17	CG16890	DRSC01890	-0.3	0
18	CG7966	DRSC16356	-0.3	-0.4
19	Mekk1	DRSC16302	0	-0.2
20	Mekk1	DRSC16303	-1.1	-0.7
21	mahe	DRSC17755	-0.5	-0.8
22	SNRPG	DRSC20207	1.7	2.9
23	Nop56	DRSC14699	0.7	2.4
24	CG31253 + CG31131	DRSC13839	0	-0.2
25	Awh	DRSC08140	-0.3	-0.6
26	CG5883	DRSC10552	-0.2	-0.2
27	loopin-1	DRSC06888	-0.2	-0.6
28	Tcs4	DRSC19587	-0.4	-0.3
29	Gyc88E	DRSC15547	-0.2	-0.1
30	Uba4	DRSC02194	0	-0.1
31	Nrx-1	DRSC16184	-0.3	-0.8
32	Orc2	DRSC16776	-0.3	-0.4
33	CG12942	DRSC06253	-0.2	0.1
34	CG8768	DRSC07259	-0.2	-0.5
35	Ptp61F	DRSC08683	-0.5	-0.5
36	CG14395	DRSC14852	-0.4	-0.3
37	Atg101	DRSC20020	-0.7	-0.9
38	Or98b	DRSC16775	-0.5	-0.3
39	CG42568 + DnaJ-60	DRSC04207	-0.1	0.1
40	CG42568 + DnaJ-60	DRSC04611	-0.4	-0.6
41	CG14971	DRSC08430	-0.3	-0.5
42	CG33992 (retired record) + CG43755	DRSC00012	-0.5	0
43	CG31344	DRSC16069	-0.3	1.2
44	Fst	DRSC16491	-0.3	-0.2
45	Hr39	DRSC03346	-0.2	-0.8
46	CG17721	DRSC15253	-0.2	-0.5
47	CG42591	DRSC08905	0.3	0.4
48	Act79B	DRSC11604	0.3	0.4
49	Grl40a	DRSC03677	-0.1	-0.2
50	Nepl14	DRSC15631	0	-0.7
51	CG8641	DRSC11028	-0.4	-0.5
52	Oda	DRSC07626	-0.2	-0.6
53	CG2065	DRSC06813	-0.2	-0.1
54	Sdhaf3	DRSC15020	-0.3	-0.3
55	Chchd3	DRSC16981	3.6	1.3
56	capu	DRSC00208	-0.2	0.1
57	capu	DRSC00209	-0.3	-0.8
58	capu	DRSC00434	-0.4	-0.2
59	capu	DRSC00807	-0.3	-0.1
60	Pburs	DRSC02483	-0.2	-0.1
61	rig	DRSC06053	-0.2	-0.3
62	rig	DRSC06400	-0.1	0.3
63	CG32706 + CG6999	DRSC18412	-0.2	-0.1
64	Tsp39D	DRSC03099	-0.2	-0.2
65	CG32669	DRSC18864	-0.3	-0.3
66	CstF64	DRSC16616	-0.1	-0.2
67	CG10663	DRSC09770	-0.3	0.1
68	Atg6	DRSC15798	-0.2	0.1
69	CG13989	DRSC02321	-0.3	-0.1
70	CG41520	DRSC21102	-0.2	-0.2
71	CG41520	DRSC21103	-0.1	-0.4
72	sPLA2	DRSC06041	-0.3	-0.6
73	CG9919	DRSC20219	-0.2	0
74	ChT	DRSC16296	-0.2	-0.3
75	Swt1	DRSC20028	-0.2	-0.5
76	Prip	DRSC07044	-0.3	-0.5
77	CG42399	DRSC00322	-0.3	-0.2
78	CG42399	DRSC00661	-0.3	-0.6
79	MED6	DRSC16500	-0.1	0.2
80	pigeon	DRSC03565	-0.3	-0.4
81	Rpt6	DRSC20571	0.6	1.8
82	Nhe2	DRSC03172	0.2	0.5
83	Nhe2	DRSC03377	-0.4	-0.4
